PubChem BioAssay
The list shows a part of the results. Shown are side measurements of this screen, not its main read-out; they come without a call. For part of these data: Compounds called inactive in the main read-out are mostly missing here.

What was measured:
PubChem AID 1586 = details: yeast two-hybrid polyglutamine protein interaction, reporter readout; measured here: averaged growth delta OD
[1] = selective SMN2 exon splicing luciferase activators – cell-based, SMN2/SMN1 luciferase reporters (AID 1598); details: SMN2 vs SMN1 luciferase splicing reporter cells, at 10 µM; SMN1 luciferase ratio: measured here: SMN1 luciferase reporter average; SMN2 luciferase ratio: measured here: SMN2 luciferase reporter average, stronger effect = higher value
[2] = rescue of PC12 cells from polyQ htt toxicity – LDH release (AID 1610); details: PC12 mutant huntingtin toxicity, final LDH at 4 uM, stronger effect = lower value

SMILES | signal change (36 h minus 0 h) (PubChem AID 1586) | SMN1 luciferase ratio [1] | SMN2 luciferase ratio [1] | normalised LDH release [2]
O=c1ccn([C@@H]2O[C@H](COP(=O)(O)OP(=O)(O)OP(=O)(O)O)[C@@H](O)[C@H]2O)c(=O)[nH]1 | 0.113 | 0.96 | 0.86 | 0.935
C#C[C@]1(O)CCC2C3CCC4=C(CCC(=O)C4)C3CC[C@@]21C (some centres not stated) | 0.203 | 0.9 | 0.89 | 1
CCCCc1oc2ccccc2c1C(=O)c1cc(I)c(OCCN(CC)CC)c(I)c1 | -0.0135 | 0.9 | 0.82 | 0.952
CC(=O)[C@@]1(O)CCC2C3C[C@H](C)C4=CC(=O)C=CC4(C)[C@@]3(F)[C@@H](O)C[C@@]21C (some centres not stated) | 0.124 | 0.88 | 0.92 | 0.611
COc1ccc(OC)c(C(O)CNC(=O)CN)c1 (configuration not stated) | 0.225 | 0.96 | 0.91 | 1.59
COC(=O)C1=C(C)NC(C)=C(C(=O)OCCN(C)Cc2ccccc2)C1c1cccc([N+](=O)[O-])c1 (configuration not stated) | 0.211 | 1 | 1.04 | 0.693
CN(C)CCOC(C)(c1ccccc1)c1ccccn1 (configuration not stated) | 0.064 | 0.93 | 0.9 | 0.901
COc1ccc2c(c1OC)C(=O)OC2[C@H]1c2c(cc3c(c2OC)OCO3)CCN1C (some centres not stated) | -0.0035 | 0.99 | 0.86 | 0.931
NS(=O)(=O)c1cc2c(cc1Cl)NC(CSCc1ccccc1)=NS2(=O)=O | 0.138 | 0.9 | 0.92 | 1.03
CC1Cc2ccccc2N1NC(=O)c1ccc(Cl)c(S(N)(=O)=O)c1 (configuration not stated) | 0.092 | 0.95 | 0.9 | 1.11
OCCN(CCO)c1nc(N2CCCCC2)c2nc(N(CCO)CCO)nc(N3CCCCC3)c2n1 | 0.215 | 0.91 | 1.01 | 0.85
Nc1ncnc2c1ncn2C1O[C@H](COP(=O)(O)O)[C@@H](O)[C@H]1O (some centres not stated) | 0.205 | 0.9 | 1 | 0.928
C[C@]12C=CC(=O)C=C1CCC1C2C(=O)C[C@@]2(C)C1CC[C@]2(O)C(=O)CO (some centres not stated) | 0.0526 | 0.89 | 0.93 | 0.943
CCN(CC)CCNC(=O)c1cc(Br)c(N)cc1OC | 0.0644 | 0.9 | 0.84 | 0.994
CN(C)C(=O)Oc1ccc[n+](C)c1 | 0.176 | 0.88 | 0.88 | 0.781
Nc1ccc(S(=O)(=O)c2ccc(N)cc2)cc1 | 0.144 | 0.92 | 0.91 | 1.32
CN(C)CCC(c1ccc(Cl)cc1)c1ccccn1 (configuration not stated) | 0.0784 | 0.89 | 0.92 | 1.18
CN1CCN(CCCN2c3ccccc3Sc3ccc(Cl)cc32)CC1 | 0.159 | 0.91 | 0.84 | 0.677

An excerpt from above in order of length of the SMILES, rising:
SMILES | signal change (36 h minus 0 h) (PubChem AID 1586) | SMN1 luciferase ratio [1] | SMN2 luciferase ratio [1] | normalised LDH release [2]
Nc1ccc(S(=O)(=O)c2ccc(N)cc2)cc1 | 0.144 | 0.92 | 0.91 | 1.32
CC1Cc2ccccc2N1NC(=O)c1ccc(Cl)c(S(N)(=O)=O)c1 (configuration not stated) | 0.092 | 0.95 | 0.9 | 1.11
C[C@]12C=CC(=O)C=C1CCC1C2C(=O)C[C@@]2(C)C1CC[C@]2(O)C(=O)CO (some centres not stated) | 0.0526 | 0.89 | 0.93 | 0.943
